According to patent publication US6558950 (MCGILL UNIVERSITY, dated 2003):
No constants are given. Whether binding was seen depends on the method and setting. Binding seen in cells or lysates may run through a third protein. Some entries that bind do so weakly or less than the wild type. Tags and fused reporters may be left off the sequences shown.

Protein sequences, listed by entry. Tags and fused reporters are not part of them. Lines headed by an entry give the natural chain unless they say otherwise; changes in a name come on top. Chains listed by the source or under a name are the forms on record and can include a tag or linker.
HA-tagged pro-FLICE (Q14790, form named): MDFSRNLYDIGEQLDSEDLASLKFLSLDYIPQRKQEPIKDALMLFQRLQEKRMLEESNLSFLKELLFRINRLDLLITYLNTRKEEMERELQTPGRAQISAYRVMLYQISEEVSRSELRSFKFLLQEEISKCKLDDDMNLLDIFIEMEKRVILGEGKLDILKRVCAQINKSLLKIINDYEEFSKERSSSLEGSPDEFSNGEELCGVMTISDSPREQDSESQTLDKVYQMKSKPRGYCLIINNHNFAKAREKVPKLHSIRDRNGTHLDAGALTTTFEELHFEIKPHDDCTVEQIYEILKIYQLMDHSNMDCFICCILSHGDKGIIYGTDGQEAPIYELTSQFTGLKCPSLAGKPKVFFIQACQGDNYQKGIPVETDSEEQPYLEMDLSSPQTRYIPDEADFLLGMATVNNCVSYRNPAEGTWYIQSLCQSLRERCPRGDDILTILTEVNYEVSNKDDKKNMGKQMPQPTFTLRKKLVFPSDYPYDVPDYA
Myc-tagged Bcl-XL (Q07817, form named): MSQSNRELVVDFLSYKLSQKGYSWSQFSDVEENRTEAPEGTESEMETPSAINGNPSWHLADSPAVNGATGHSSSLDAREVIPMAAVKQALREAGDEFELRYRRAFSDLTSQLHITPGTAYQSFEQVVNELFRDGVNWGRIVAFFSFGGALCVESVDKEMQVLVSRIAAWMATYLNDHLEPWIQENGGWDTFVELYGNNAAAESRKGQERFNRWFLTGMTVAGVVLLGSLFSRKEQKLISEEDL
HA-tagged Bcl-2 (P10415, form named): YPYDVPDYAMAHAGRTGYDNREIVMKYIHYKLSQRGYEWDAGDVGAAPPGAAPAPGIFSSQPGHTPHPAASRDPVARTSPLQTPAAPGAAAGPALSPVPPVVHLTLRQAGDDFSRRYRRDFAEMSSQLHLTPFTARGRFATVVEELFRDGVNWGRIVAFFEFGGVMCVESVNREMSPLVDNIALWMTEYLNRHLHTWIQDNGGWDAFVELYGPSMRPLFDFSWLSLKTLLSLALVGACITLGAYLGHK

What was measured:
[1] = molecular target: T1, Flag-tagged p28 Bap31 (human) (UniProt P51572); assay: anti-Flag co-immunoprecipitation from transfected 293T cells, anti-HA Western blot
T1 sequence: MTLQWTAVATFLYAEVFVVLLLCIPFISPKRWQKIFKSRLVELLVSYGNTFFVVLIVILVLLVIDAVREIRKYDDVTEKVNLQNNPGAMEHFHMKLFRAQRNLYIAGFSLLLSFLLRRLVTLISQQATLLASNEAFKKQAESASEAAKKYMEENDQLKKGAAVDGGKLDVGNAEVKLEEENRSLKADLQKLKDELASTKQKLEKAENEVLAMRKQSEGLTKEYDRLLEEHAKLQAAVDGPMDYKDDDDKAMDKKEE

[2] = molecular target: T1, Flag-tagged p28 Bap31 (human); assay: anti-Flag co-immunoprecipitation from transfected 293T cells, anti-Myc Western blot

Substance | binding [1] | binding [2]
HA-tagged pro-FLICE (from UniProt Q14790 1-479) (enzyme) | binds | –
Myc-tagged Bcl-XL (from UniProt Q07817 1-233) | – | binds
HA-tagged Bcl-2 (from UniProt P10415 1-239) | binds | –
